From US20100029542A1, “PROTEIN STERILISATION BY RADIATION AND ADDITION OF A STABILISING COMPOSITION” (priority 2006, published 2010)
For at least one compound, name, drawing or mass did not settle the structure.

By UniProt entry, the sequences of proteins in these tests, tags left out. Residues count along the entry.
UniProt P13006, 17-605: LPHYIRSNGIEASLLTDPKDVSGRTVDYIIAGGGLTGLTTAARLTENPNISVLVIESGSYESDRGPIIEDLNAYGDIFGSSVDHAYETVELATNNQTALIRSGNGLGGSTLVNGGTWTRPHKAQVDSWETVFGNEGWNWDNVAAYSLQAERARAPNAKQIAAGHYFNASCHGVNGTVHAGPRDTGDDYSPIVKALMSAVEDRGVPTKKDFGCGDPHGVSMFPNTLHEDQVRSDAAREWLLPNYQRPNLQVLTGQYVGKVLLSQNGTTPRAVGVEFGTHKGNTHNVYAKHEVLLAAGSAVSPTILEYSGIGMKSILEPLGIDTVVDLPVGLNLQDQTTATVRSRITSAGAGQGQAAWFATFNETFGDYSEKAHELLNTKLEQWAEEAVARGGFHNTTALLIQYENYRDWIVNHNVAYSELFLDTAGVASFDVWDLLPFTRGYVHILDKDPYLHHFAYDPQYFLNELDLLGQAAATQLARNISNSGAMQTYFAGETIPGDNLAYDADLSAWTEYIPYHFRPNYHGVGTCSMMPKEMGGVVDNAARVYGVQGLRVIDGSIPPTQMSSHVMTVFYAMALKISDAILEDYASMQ

What was measured:
[1] = target: T1, glucose oxidase (Aspergillus niger, UniProt P13006); test: Activity recovery of glucose oxidase in dry formulations following gamma irradiation; format: physicochemical
T1 construct: purchased Biocatalysts G575P
Protocol: In each example, an aqueous solution of a protein was prepared with selected additives in an Eppendorf tube or in a glass vial. Water was removed from the formulation by drying under a stream of nitrogen at 30° C. and subsequent incubation at atmospheric pressure in the presence of a dessicant. The Eppendorf tubes or the glass vials were sealed and delivered to an industrial sterilisation service for gamma irradiation, with a dose range typical for sterile medical products. The gamma-irradiated samples were reconstituted on their return and analysed for protein activity or structural integrity. The results were compared with those achieved using control (i.e. non-irradiated) samples. […]
These were mixed together quickly. Time=0 was counted from the addition of the glucose. […] The absorbance was then read at 630 nm using a Unicam UV-visible spectrophotometer (Type: Helios gamma). If the colour intensity was too great to allow an accurate reading, the sample was diluted with a defined volume of deionised water to bring the colour back on scale. The results were expressed as percentage recovery, by reference to the absorbance measured in the pre-gamma irradiation samples.

[2] = Table 1, singlet oxygen scavengers; measured in specified solvents; cited from earlier work

Row | Structure (SMILES) | Enzyme activity remaining after gamma-irradiation ([1]; Table 3, prior-art antioxidants, glucose oxidase 350 μg mL^−1 prior to drying, dry, 25-40 kGy, ambient temperature, vs non-irradiated) [%] | Compatibility of the compound with glucose oxidase ([1]; as excipient in the formulation) | Rate constant k [2]
1 | O=C1O[C@H]([C@@H](O)CO)C(O)=C1O [Ascorbate] | 44.4 | compatible | –
2 | NC(N)=S [Thiourea] | – | – | k = 6 × 10^7 L mol^−1 s^−1
